Measured values as given in article PMC9945446.
Weaker means in comparison with the reference protein, sequence or condition of that experiment. The exact form of at least one protein or probe is not confirmed. Whether high values mean tight binding is not given here for every scale.

Amino acid sequences for entries named in this document (tags omitted). A change or cut given only in a name is not applied to a line headed by its entry.
UniProt P26358: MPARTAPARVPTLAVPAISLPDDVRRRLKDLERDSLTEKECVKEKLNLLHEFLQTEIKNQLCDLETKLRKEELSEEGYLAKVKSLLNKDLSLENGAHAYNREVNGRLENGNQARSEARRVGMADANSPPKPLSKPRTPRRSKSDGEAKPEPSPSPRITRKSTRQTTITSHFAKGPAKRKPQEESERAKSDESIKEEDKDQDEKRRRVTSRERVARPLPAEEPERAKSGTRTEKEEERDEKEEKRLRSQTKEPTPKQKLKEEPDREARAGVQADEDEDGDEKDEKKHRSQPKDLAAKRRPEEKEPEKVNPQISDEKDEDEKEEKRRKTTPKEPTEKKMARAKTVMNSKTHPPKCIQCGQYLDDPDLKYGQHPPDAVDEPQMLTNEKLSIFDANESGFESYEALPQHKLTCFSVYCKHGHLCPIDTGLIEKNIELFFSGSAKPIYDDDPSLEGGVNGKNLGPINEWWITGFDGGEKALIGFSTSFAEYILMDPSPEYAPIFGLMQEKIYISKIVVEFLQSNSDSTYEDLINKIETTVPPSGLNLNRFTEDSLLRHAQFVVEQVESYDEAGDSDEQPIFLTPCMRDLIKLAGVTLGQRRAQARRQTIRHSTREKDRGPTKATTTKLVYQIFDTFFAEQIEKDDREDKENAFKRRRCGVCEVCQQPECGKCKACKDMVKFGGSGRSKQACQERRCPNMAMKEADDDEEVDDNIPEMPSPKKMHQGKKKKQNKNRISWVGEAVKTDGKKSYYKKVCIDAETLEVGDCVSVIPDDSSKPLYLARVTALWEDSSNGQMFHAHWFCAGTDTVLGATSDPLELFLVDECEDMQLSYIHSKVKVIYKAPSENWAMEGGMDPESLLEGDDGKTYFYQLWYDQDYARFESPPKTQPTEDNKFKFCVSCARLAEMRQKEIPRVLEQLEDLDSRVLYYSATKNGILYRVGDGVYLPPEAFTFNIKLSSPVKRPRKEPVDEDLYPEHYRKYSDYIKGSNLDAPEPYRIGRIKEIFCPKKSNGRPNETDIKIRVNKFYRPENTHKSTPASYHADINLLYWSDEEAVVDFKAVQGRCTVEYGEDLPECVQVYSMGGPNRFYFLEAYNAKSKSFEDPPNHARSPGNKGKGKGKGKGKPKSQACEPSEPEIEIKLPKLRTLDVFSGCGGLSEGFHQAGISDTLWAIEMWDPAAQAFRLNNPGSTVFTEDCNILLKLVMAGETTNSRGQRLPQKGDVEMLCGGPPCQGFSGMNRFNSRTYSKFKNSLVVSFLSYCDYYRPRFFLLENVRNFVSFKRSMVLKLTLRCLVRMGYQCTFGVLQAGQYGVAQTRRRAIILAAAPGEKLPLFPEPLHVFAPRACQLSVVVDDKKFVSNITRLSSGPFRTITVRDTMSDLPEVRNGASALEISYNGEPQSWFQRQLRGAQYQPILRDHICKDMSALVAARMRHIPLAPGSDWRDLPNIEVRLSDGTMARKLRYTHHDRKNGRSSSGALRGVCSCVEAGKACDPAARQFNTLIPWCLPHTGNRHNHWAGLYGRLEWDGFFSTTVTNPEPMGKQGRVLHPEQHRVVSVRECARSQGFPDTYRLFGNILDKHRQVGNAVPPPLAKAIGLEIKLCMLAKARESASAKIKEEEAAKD

Target: DNMT1 (human) (UniProt P26358)
Assay: EMSA
Conditions: 50 mM Tris-HCl pH 7.5, 100 mM KCl (or LiCl), 2.5 mM MgCl2, 0.1 mM ZnCl2, 2 mM BME, 0.05% NP40, 5% glycerol, 0.1 mg/mL BSA, 0.1 mg/mL yeast tRNA, 30 C 1 h, recombinant protein, residues 1-1616, protein details: MBP tag cleaved with PreScission protease, label: 5' 32P; for binding signal (fold weaker than in K+): 100 mM LiCl (unfolded)

Row | Sequence | binding result (100 mM KCl, somewhat weaker than (GGAA)10) | binding signal (fold weaker than in K+)
1 | GAGAGAGAGAGAGAGAGAGAGAGAGAGAGAGAGAGAGAGA [(GA)20] | binds more weakly | 
2 | GUGUGUGUGUGUGUGUGUGUGUGUGUGUGUGUGUGUGUGU [(GU)20] |  | 8
3 | GUGUGUGUGUGUGUGUGUGUGUGUGUGUGUGUGUGUGUGUGUGUGUGUGUGUGUGUGUGU [(GU)30] |  | > 50
